Measurements: US9192569B2 (Novacta Biosystems Limited, priority 2010, dated 2015)

Assay: general procedure: peptide synthesis; PyBOP, diisopropylethylamine
Conditions: late stage modification step

Substance | step yield
Deoxyactagardine B 19-[4-(2′-(3″,5″-dinitrobenzamido)-ethyl)-piperazine]monocarboxamide | 20%
Deoxyactagardine B [2-(3′,5′-dichlorobenzylamino)ethylamine]monocarboxamide | 51%
Deoxyactagardine B [3-(2′-aminomethyl-4′-(2″,4″-dichlorophenyl)-furanyl)propylamine]monocarboxamide | 11%
Deoxyactagardine B [3-(2′-aminomethyl-4′-(2″-nitro-4″-chlorophenyl)-furanyl)propylamine]monocarboxamide | 11%
Deoxyactagardine B [3-(3′,5′-dichlorobenzamido)propylamine]monocarboxamide | 61%
Deoxyactagardine B [3-(3′,5′-dichlorobenzylamino)-1-propylamine]monocarboxamide | 33%
Deoxyactagardine B [3-(3′-(3″,5″-dichlorobenzylamino)propylamino) propylamine]monocarboxamide | 22%
Deoxyactagardine B [4-(2′-(3″,5″-dichlorobenzylamino)ethyl)piperazine]monocarboxamide | 15%
Deoxyactagardine B [4-(3′,5′-dichlorobenzylaminomethyl)benzyl]monocarboxamide | 37%
Deoxyactagardine B [5-(3′,5′-dichlorobenzylamino)-pentylamine]monocarboxamide | 36%
Deoxyactagardine B [6-(2′,4′,6′-trichlorobenzenesulfonamido)hexylamine]monocarboxamide | 73%
Deoxyactagardine B [6-(3′,5′-dichlorobenzylamino)-hexylamine]monocarboxamide | 51%
Deoxyactagardine B [7-(3′,5′-dichlorobenzylamino)-1-heptylamine]monocarboxamide | 35%
Deoxyactagardine B [8-(3′,5′-dichlorobenzylamino)octylamine]monocarboxamide | 63%
